From PMC8986801, “Activation of the essential kinase PDK1 by phosphoinositide-driven trans-autophosphorylation” (Nature Communications, 2022)
No constants are given. Whether binding was seen depends on the method and setting. For part of these data: Sequences can lack the tags named with a protein. One block for each binder: values may come before it.

Assays:
Experiment in all cases: SEC-MALS; 50 μl of purified protein injected on Superdex 200 10/300; 50 mM Tris pH 7.5, 100 mM NaCl, 2% glycerol, 1 mM TCEP, 2 mM MgCl2, ±1 mM ATP; self-association (monomer or dimer); both purified
[1] = molecular target: PDK1^PIF-SKD S241A (PIFtide fused through a G5 linker to the N-terminus of the short kinase domain, S241A) (UniProt O15530)
[2] = molecular target: PDK1^FL S241A (near-full-length PDK1, residues 73-556, S241A) (human) (UniProt O15530)
[3] = molecular target: PDK1^SKD S241A (short kinase domain, residues 73-359, S241A) (human) (UniProt O15530)

B1: PDK1^PIF-SKD S241A (PIFtide fused through a G5 linker to the N-terminus of the short kinase domain, S241A) (protein, UniProt O15530 73-359)
chain: QEMFRDFDYIADWCGGGGGQPRKKRPEDFKFGKILGEGSFSTVVLARELATSREYAIKILEKRHIIKENKVPYVTRERDVMSRLDHPFFVKLYFTFQDDEKLYFGLSYAKNGELLKYIRKIGSFDETCTRFYTAEIVSALEYLHGKGIIHRDLKPENILLNEDMHIQITDFGTAKVLSPESKQARANAFVGTAQYVSPELLTEKSACKSSDLWALGCIIYQLVAGLPPFRAGNEYLIFQKIIKLEYDFPEKFFPKARDLVEKLLVLDATKRLGCEEMEGYGPLKAHPFFESVTWENLHQQTPPKLT
- binding [1]: no binding (tested: 5.6 mg/ml injected (50 μl))

- binding [2]: no binding (tested: 2 μM)
B2: PDK1^FL S241A (near-full-length PDK1, residues 73-556, S241A) (domain or fragment, UniProt O15530 73-556)
chain: QPRKKRPEDFKFGKILGEGSFSTVVLARELATSREYAIKILEKRHIIKENKVPYVTRERDVMSRLDHPFFVKLYFTFQDDEKLYFGLSYAKNGELLKYIRKIGSFDETCTRFYTAEIVSALEYLHGKGIIHRDLKPENILLNEDMHIQITDFGTAKVLSPESKQARANAFVGTAQYVSPELLTEKSACKSSDLWALGCIIYQLVAGLPPFRAGNEYLIFQKIIKLEYDFPEKFFPKARDLVEKLLVLDATKRLGCEEMEGYGPLKAHPFFESVTWENLHQQTPPKLTAYLPAMSEDDEDCYGNYDNLLSQFGCMQVSSSSSSHSLSASDTGLPQRSGSNIEQYIHDLDSNSFELDLQFSEDEKRLLLEKQAGGNPWHQFVENNLILKMGPVDKRKGLFARRRQLLLTEGPHLYYVDPVNKVLKGEIPWSQELRPEAKNFKTFFVHTPNRTYYLMDPSGNAHKWCRKIQEVWRQRYQSHPDAAVQ

- binding [3]: no binding (tested: 2 μM)
B3: PDK1^SKD S241A (short kinase domain, residues 73-359, S241A) (domain or fragment, UniProt O15530 73-359)
chain: QPRKKRPEDFKFGKILGEGSFSTVVLARELATSREYAIKILEKRHIIKENKVPYVTRERDVMSRLDHPFFVKLYFTFQDDEKLYFGLSYAKNGELLKYIRKIGSFDETCTRFYTAEIVSALEYLHGKGIIHRDLKPENILLNEDMHIQITDFGTAKVLSPESKQARANAFVGTAQYVSPELLTEKSACKSSDLWALGCIIYQLVAGLPPFRAGNEYLIFQKIIKLEYDFPEKFFPKARDLVEKLLVLDATKRLGCEEMEGYGPLKAHPFFESVTWENLHQQTPPKLT
